Data set [1] in a line: Alkylation of toluene with ethylene over HZSM-5 in presence of heterocycle. Particulars: for OET in ethyltoluene product / PET in ethyltoluene product: 1.5 hours after slug.
Data set [2] in a line: Toluene disproportionation. The note with it: Example 18; 495° C, 2870 kPa, 130 ppm N; after 0.75 moles per mole Al fed.
[3] abbreviates: Example 2, 30 ppm N after slug, 3.25 hours on stream.
The mark [4] stands for this setting: Example 2, after slug 0.12 moles per mole Al (130 ppm N, 15 min), 410° C.
Where [5] appears, read: Example 2, reduced to 10 ppm N, additional 1.5 hours.
Where [6] appears, read: Example 2, then pure toluene, additional 1.5 hours.
Setting [7] is: Example 3, 30 ppm N, 3.5 hours on stream.
[8] abbreviates: Example 3, after slug 0.25 moles per mole Al (30 min).
The mark [9] stands for this setting: Example 3, then pure toluene 1 hour.
[10] abbreviates: Example 4, constant 130 ppm N, 1.75 hours on stream.
The mark [11] stands for this setting: Example 4, constant 130 ppm N, 3.25 hours on stream.
The mark [12] stands for this setting: Example 4, switched to pure toluene, 5.25 hours on stream.
Setting [13] is: Example 10, ZSM-5 about 0.6 microns, 30 ppm N after slug, 2.75 hours.
The mark [14] stands for this setting: Example 1, 0.08 g injected, 380° C, 100 psig, WHSV 28.
[15] abbreviates: Example 7, constant 135 ppm N, lined out.
The mark [16] stands for this setting: Example 15, initial slug only, 10% (mole) of Al.
The mark [17] stands for this setting: Example 13, 130 ppm N, 3.75 hours on stream.
[18] abbreviates: Example 14, 30 ppm N, 3.75 hours on stream.
[19] abbreviates: Example 12, constant 130 ppm N, 3.75 hours on stream.
[20] abbreviates: Example 19, catalyst not steamed, 3.75 hours on stream.
Where [21] appears, read: Example 9, after slug, 10 ppm N, 3.25 hours on stream.
[22] abbreviates: Example 11, 1.25 hours on stream.
The mark [23] stands for this setting: Example 11, 4.5 hours on stream.

Some results are limits rather than exact numbers.

The source of these data is patent US4300011A, “Selective production of aromatics” (Mobil Oil Corporation, priority 1980, dated 1981).

For the compound `c1cnc2c(c1)ccc1cccnc12` [1,10-Phenanthroline], the ortho-isomer in ethyltoluenes result in data set [1] (setting [3]) is “undectectable”; in data set [1] (setting [4]), less than 0.05%; in data set [1] (setting [5]), “no detectable”; in data set [1] (setting [6]), “no detectable”; in data set [1] (setting [7]), “no ortho”; in data set [1] (setting [8]), “no detectable”. In addition, the para-isomer in ethyltoluenes in data set [1] (setting [3]) is given as 96.8%; in data set [1] (setting [4]), 95.7%; in data set [1] (setting [5]) it was 95.8%; in data set [1] (setting [6]), 92.2%; in data set [1] (setting [7]) it was 97.3%; in data set [1] (setting [8]), 96.8%. The PET/ET stood at 96.5% in data set [1] (Example 3, 10 ppm N, 5.2 hours on stream) and 95.6% in data set [1] (setting [9]). In data set [1] (setting [9]), the “ethylene selectivity to ethyltoluenes” value is given as 94%. Further, the “toluene selectivity to ethyltoluenes” value in data set [1] (setting [9]) is reported as 94%. The OET in ethyltoluenes entry in data set [1] (setting [10]) and in data set [1] (setting [13]) was “no detectable” throughout. The values for the PET in ethyltoluenes in data set [1] (setting [10]), in data set [1] (setting [11]) and in data set [1] (setting [13]) were 96.9%, 98.2% and 90.6%, respectively. The “toluene conversion (of theory)” value in data set [1] (setting [10]) worked out at 91%; in data set [1] (setting [11]), 90%. For the same compound, in data set [1] (setting [12]), the PET/Et is 94.2%. For the same compound, in data set [1] (setting [12]), the toluene conversion amounted to 87%. In data set [1] (Example 17, slug 0.25 moles per mole Al, 420° C, catalyst with 7% Mg and 3% P), the “para-selectivity, ethyltoluene product” value was 98.0%. Further, the ortho-isomer in xylenes in data set [2] came to 18.3%. Also, in data set [2], the “para isomer in xylenes” value is 36.2%.

Regarding `Cc1cc(C)nc(C)c1` [2,4,6-Collidine, 2,4,6-trimethylpyridine], the ortho-isomer in ethyltoluenes entry in data set [1] (setting [14]) is “less than 0.2%”; in data set [1] (Example 5, constant 135 ppm N (1 H/Al hr.), lined out) it was “no detectable”; in data set [1] (Example 6, 2800 ppm (25 H/Al hr.)) it was “no ortho-isomer”. The para-isomer in ethyltoluenes in data set [1] (setting [14]) is recorded as 41%. The toluene conversion entry in data set [1] (Example 1, 0.08 g injected, change versus before injection) was “little change”.

As for `Cc1cccc(C)n1` [2,6-Lutidine], in data set [1] (Example 8, 130 ppm N (1 H/Al hr.), after one hour of contact), the catalyst activity result is recorded as “effectively dead”.

With `Cc1ccnc2ccccc12` [4-Methylquinoline], in data set [1] (setting [15]), the ortho-isomer in ethyltoluenes entry is listed as “no detectable” and the “para-isomer, ethyltoluene selectivity” value is on record as 93-94%. In data set [1] (setting [16]), the “OET in ethyltoluene product” value is “no OET” and the “PET in ethyltoluene product” value is 75%. In addition, in data set [1] (Example 16, unsteamed catalyst), the “OET in ethyltoluene product” value is recorded as “no OET” and the “PET in ethyltoluene product” value is on record as 87%.

For `c1ccc2c(c1)ccc1ncccc12` [5,6-Benzoquinoline], in data set [1] (setting [17]), the OET in ethyltoluenes entry is “no OET”, the PET in ethyltoluenes came to 86% and the “toluene conversion (of theory)” value worked out at 97%. Besides, in data set [1] (setting [18]), the OET in ethyltoluenes amounted to 0%, the PET in ethyltoluenes was 79% and the “toluene conversion (of theory)” value is listed as 97%.

For `c1ccc2c(c1)ccc1cccnc12` [7,8-Benzoquinoline], in data set [1] (setting [19]), the PET in ethyltoluenes came to 80% and the “toluene conversion (of theory)” value is listed as 93%. Further, in data set [1] (setting [20]), the ortho-isomer in ethyltoluenes entry is “no detectable”, the para-isomer in ethyltoluenes is given as 92.4% and the “toluene conversion (of theory)” value is recorded as 37%.

For the compound `c1ccc(-c2ccnc3c2ccc2c(-c4ccccc4)ccnc23)cc1` [Bathophenanthroline, 4,7-diphenyl-1,10-phenanthroline], in data set [1] (setting [21]), the OET in ethyltoluenes result is listed as “no detectable” and the PET in ethyltoluenes came out at 66%.

As to `c1ccc2c(c1)ccc1ccccc12` [phenanthrene, reference compound], in data set [1] (setting [22]), the OET/ET stood at 0.28% and the PET/ET came to 53.7%. Besides, in data set [1] (setting [23]), the OET/ET was determined as 0.26% and the PET/ET was 53.9%.
